{
  "sequences": {"note": "Sequences of proteins named here, by UniProt entry; tags and fusion partners are left off. A change or cut given only in a name is not applied to a line headed by its entry.", "UniProt P97469": "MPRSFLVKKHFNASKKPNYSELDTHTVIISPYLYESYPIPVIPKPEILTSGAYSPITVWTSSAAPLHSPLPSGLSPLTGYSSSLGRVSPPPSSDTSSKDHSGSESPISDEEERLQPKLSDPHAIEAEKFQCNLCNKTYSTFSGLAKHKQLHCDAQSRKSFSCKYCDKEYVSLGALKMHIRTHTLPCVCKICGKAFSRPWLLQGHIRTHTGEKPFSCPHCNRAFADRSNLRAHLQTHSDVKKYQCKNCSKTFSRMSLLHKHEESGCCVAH", "UniProt Q02085": "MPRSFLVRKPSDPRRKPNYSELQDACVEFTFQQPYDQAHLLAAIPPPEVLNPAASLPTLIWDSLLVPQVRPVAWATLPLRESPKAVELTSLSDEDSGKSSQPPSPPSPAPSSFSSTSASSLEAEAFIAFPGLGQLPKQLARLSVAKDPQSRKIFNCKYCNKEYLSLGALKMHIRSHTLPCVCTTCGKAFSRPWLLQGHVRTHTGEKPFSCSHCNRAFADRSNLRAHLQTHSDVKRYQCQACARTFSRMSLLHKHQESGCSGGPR"},
  "source": "paper PMC3902928",
  "about": "“Nuclear ubiquitination by FBXL5 modulates Snail1 DNA binding and stability” (Nucleic Acids Research, 2013)",
  "note": "These are yes or no findings as the source states them, for the method shown. Binding seen in cells or lysates may run through a third protein. A result given as binding can be weak or reduced; the word gives no strength. Tags and fused reporters may be left off the sequences shown.",
  "data": [
    {"target": "T1, GST-FBXL5 (pGEX-6P-1) (UniProt Q9UKA1)", "T1 sequence": "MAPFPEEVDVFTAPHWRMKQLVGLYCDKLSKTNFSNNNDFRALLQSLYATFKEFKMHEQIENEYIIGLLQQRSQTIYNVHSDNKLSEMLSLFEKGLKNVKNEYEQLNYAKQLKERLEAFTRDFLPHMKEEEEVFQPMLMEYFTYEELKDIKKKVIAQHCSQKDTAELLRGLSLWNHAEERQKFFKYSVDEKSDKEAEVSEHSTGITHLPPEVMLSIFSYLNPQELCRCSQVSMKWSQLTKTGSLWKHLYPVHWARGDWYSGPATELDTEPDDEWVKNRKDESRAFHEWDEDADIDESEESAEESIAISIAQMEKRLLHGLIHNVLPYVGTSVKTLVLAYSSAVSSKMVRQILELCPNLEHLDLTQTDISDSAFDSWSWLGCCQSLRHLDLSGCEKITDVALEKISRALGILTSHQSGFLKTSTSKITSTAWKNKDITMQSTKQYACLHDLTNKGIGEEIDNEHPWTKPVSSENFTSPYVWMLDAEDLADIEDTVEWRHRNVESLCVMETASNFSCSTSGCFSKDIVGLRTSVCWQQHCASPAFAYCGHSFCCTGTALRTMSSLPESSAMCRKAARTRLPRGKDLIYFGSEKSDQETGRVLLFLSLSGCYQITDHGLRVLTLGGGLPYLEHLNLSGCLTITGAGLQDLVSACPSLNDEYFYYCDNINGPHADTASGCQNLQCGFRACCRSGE", "assay": "pull-down; GST or GST-FBXL5 protein on glutathione-sepharose with extracts from transfected HEK293T cells; western blot; only the target purified", "values": [
      {"substance": "Snail2-HA (pcDNA3-Snail2-HA) (from UniProt P97469)", "binding": "binds"},
      {"substance": "GFP-Snail1CT ΔZnF4 (from UniProt Q02085) (domain or fragment)", "binding": "binds"},
      {"substance": "GFP-Snail1CT ΔZnF2-4 (from UniProt Q02085) (domain or fragment)", "binding": "no binding"}
    ]}
  ]
}
